Some of the results follow. Further columns of the screen follow, without active or inactive calls. Most of these compounds were active or inconclusive in the main read-out, so they are no random draw. The note in brackets gives the kind of curve behind each potency; many fits are weak.

For orientation: AC50 means the concentration giving half of the maximal activity seen.

This test in a line: qHTS Assay for Modulators of Lamin A Splicing. The conditions noted are these: HeLa LMNA splicing GFP/RFP minigene ratio, 48 h. Summed up:
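S3 HeLa stable clones carrying a lamin A-EGFP splicing minigene plus DsRed2 were seeded at 600 cells/well in Opti-MEM with 2% FBS, pin-dosed and incubated 48 h at 37°C. Acumen cytometry (488 nm) gave the GFP/RFP total-intensity ratio.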

[1] abbreviates: measured here: GFP splicing reporter channel.
Where [2] appears, read: measured here: RFP viability control channel.

As to `O=C(CSc1nc2ncc(Br)cc2[nH]1)c1cccc([N+](=O)[O-])c1`, the AC50 under setting [1] was 17.8 µM [falling, partial curve].

With `O=C(NCc1cccnc1)/C(=C\c1ccc(-c2ccc(Cl)c(Cl)c2)o1)S(=O)(=O)c1ccccc1`, the AC50 under setting [1] is 17.8 µM [falling, single point] and the AC50 under setting [2] was 3.55 µM [falling, full curve]. On to `CCCCN(CC)S(=O)(=O)c1ccc(C(=O)Nc2nnc(-c3ccccc3Cl)o2)cc1`, for which the AC50 under setting [2] was 7.94 µM [rising, partial curve]. As to `Nc1nc(N)nc(-c2cc(Cl)ccc2Cl)n1`, the AC50 under setting [1] is 1.26 µM [falling, single point].

In the case of `CN(Cc1cccc(Cl)c1Cl)c1ccc(S(=O)(=O)N2CCCCC2)cc1[N+](=O)[O-]`, the AC50 is 11.2 µM [rising, partial curve] under setting [1] and 25.1 µM [rising, partial curve] under setting [2].

As for `O=C(NNc1nc(-c2ccccc2)c2cc(Br)ccc2n1)c1ccc(S(=O)(=O)N2CCOCC2)cc1`, the AC50 under setting [1] was 6.31 µM [rising, partial curve] and the half-maximal activity concentration (AC50) under setting [2] is 12.6 µM [rising, partial curve].

Turning to `O=C(NCc1ccccc1Cl)c1ccc(CSCc2cccc(F)c2)o1`, the AC50 is 10 µM [rising, partial curve, poor fit] under setting [1] and 28.2 µM [rising, single point] under setting [2]. As to `COc1cc(OC)c(C2=NOC(C(=O)NCc3ccc4c(c3)OCO4)C2)cc1Cl` (stereo unspecified), the AC50 under setting [2] was 25.1 µM [rising, single point]. As to `C=CCOc1c(OC)cc(Cl)cc1C1NC(=O)NC(C)=C1C(C)=O` (stereo unspecified), the AC50 under setting [1] was 14.1 µM [rising, partial curve, poor fit].

Take `CCN1CCCC1CNC(=O)c1cc(S(=O)(=O)CC)c(N)cc1OC` (stereo unspecified): the AC50 was 3.16 µM [rising, single point] under setting [1] and 3.98 µM [rising, single point] under setting [2]. `COCc1cc(=O)[nH]c(/N=C(\N)Nc2ccc(Oc3ccccc3)cc2)n1`: the AC50 under setting [2] is 0.01 µM [falling, full curve, poor fit]. Consider `Cc1ccc(NC(c2nnc(-c3ccccc3)o2)c2ccccc2F)c([N+](=O)[O-])c1` (stereo unspecified), for which the AC50 under setting [1] is 15.8 µM [falling, partial curve] and the AC50 under setting [2] is 3.16 µM [rising, single point]. With `O=[N+]([O-])c1ccc(N2CCN(c3ccc(O)cc3)CC2)c(Cl)c1`, the AC50 under setting [2] is 14.1 µM [rising, partial curve].

As to `CC1C/C(=N/Nc2nc3ccccc3[nH]2)CC(C)(C)C1` (stereo unspecified), the AC50 under setting [1] was 11.2 µM [rising, partial curve, poor fit] and the AC50 under setting [2] is 22.4 µM [rising, partial curve]. On to `O=C(c1ccc(Cl)s1)N1CCN(c2nc3ccccc3s2)CC1`, for which, under setting [2], the AC50 is 11.2 µM [rising, single point]. For `Oc1c(C(c2ccc(Cl)cc2)N2CCCC2)cc(Cl)c2cccnc12` (stereo unspecified), the AC50 was 3.55 µM [falling, partial curve] under setting [1] and 22.4 µM [falling, partial curve, poor fit] under setting [2]. With `Cc1cccc(C)c1OC[C@H](C)N`, the AC50 is 0.0631 µM [falling, full curve, poor fit] under setting [1] and 3.16 µM [rising, single point] under setting [2]. In the case of `Cc1cccc(C)c1Nc1nnc(SCC(=O)Nc2sccc2C#N)s1`, the AC50 is, setting by setting: under setting [1], 1.12 µM [rising, single point]; under setting [2], 3.98 µM [rising, partial curve, poor fit].

On to `O=C(O)c1ccccc1Nc1ccc([N+](=O)[O-])cc1`, for which, under setting [2], the AC50 is 3.16 µM [rising, partial curve]. The same measure, in the same setting: as for `COc1ccccc1CNC(=O)CCC1N=C2c3ccccc3N=C(SCc3ccccc3Cl)N2C1=O` (stereo unspecified), the figure is 6.31 µM [falling, single point]. In the case of `O=C(CCCCCCN1C(=O)c2ccccc2C1=O)Nc1nccs1`, the AC50 under setting [1] is 31.6 µM [rising, single point]. Take `C=C(C)[C@@H]1CCC2(C(=O)O)CC[C@]3(C)[C@H](CC[C@@H]4[C@@]5(C)CCC(=O)C(C)(C)[C@@H]5CC[C@]43C)[C@@H]12` (stereo partly specified): the concentration at half-maximal activity (AC50) under setting [1] is 0.0891 µM [rising, full curve, poor fit] and the AC50 under setting [2] is 0.794 µM [rising, full curve]. As for `CCOC(=O)c1sc2ccccc2c1S(=O)(=O)NCc1ccc(F)cc1`, the AC50 under setting [1] is 3.98 µM [falling, partial curve, poor fit].

Turning to `COC(=O)c1cc2c(ccn2-c2ccc(F)cc2)n1Cc1ccc(C#N)cc1`, the AC50 reads like this: under setting [1], 15.8 µM [rising, single point]; under setting [2], 28.2 µM [rising, single point].

As to `CCOC(=O)c1c(C)c(C(=O)Nc2ccc(N(C)C)cc2)c(C)n1CC`, the AC50 under setting [2] was 22.4 µM [rising, single point]. As for `Cc1ccc(C)c(NC(=S)N/N=C/C(C)c2ccccc2)c1` (stereo unspecified), under setting [1], the AC50 is 10 µM [rising, partial curve, poor fit]. Take `O=[N+]([O-])c1ccc(N/N=C/c2sc(N3CCOCC3)nc2-c2ccccc2)c(S(=O)(=O)Nc2ccc(Cl)cc2)c1`: the half-maximal activity concentration (AC50) is, setting by setting: under setting [1], 11.2 µM [falling, partial curve]; under setting [2], 12.6 µM [falling, partial curve, poor fit]. `Cc1ccc2nc(/C(C#N)=C\c3ccc([N+](=O)[O-])o3)[nH]c2c1`: the AC50 is 5.62 µM [falling, single point] under setting [1] and 5.62 µM [falling, single point] under setting [2]. Take `O=C(NC(=S)NCC1CCCO1)c1ccccc1` (stereo unspecified): the AC50 under setting [1] was 0.178 µM [falling, full curve, poor fit]. With `COc1ccc(-c2nnc(SCc3csc(N)n3)n2C)cc1`, the AC50 under setting [2] was 3.98 µM [rising, partial curve, poor fit].

For `Fc1ccc(CSc2nc3ccccc3[nH]2)cc1`, the concentration at half-maximal activity (AC50) under setting [2] was 31.6 µM [rising, single point].

With `CC(C)Cn1c(-c2ccc(Br)o2)n[nH]c1=S`, the AC50 under setting [2] was 0.00355 µM [falling, full curve, poor fit]. For `NC(N)=NCCN1CCCCCCC1`, the AC50 by setting is: under setting [1], 1.41 µM [rising, full curve]; under setting [2], 1.41 µM [rising, single point]. Consider `CCC(c1nnnn1CCc1ccccc1)N(Cc1ccco1)Cc1cc2c(C)ccc(C)c2[nH]c1=O` (stereo unspecified), for which, under setting [1], the half-maximal activity concentration (AC50) was 1.41 µM [rising, full curve, poor fit]. Turning to `c1cnc(N2CCN(Cc3c[nH]c4ccccc34)CC2)nc1`, the AC50 under setting [2] was 15.8 µM [falling, single point].

As for `O=c1c(-c2ccc(Cl)cc2)nc2cnc(N3CCOCC3)nc2n1Cc1ccc(F)cc1`, the AC50 runs as follows: under setting [1], 11.2 µM [falling, partial curve, poor fit]; under setting [2], 17.8 µM [falling, partial curve, poor fit]. For the compound `CCOc1ccc(NC(=O)Cn2c(=O)n(CC3CCCO3)c(=O)c3ccccc32)cc1` (stereo unspecified), the AC50 is, setting by setting: under setting [1], 6.31 µM [rising, partial curve, poor fit]; under setting [2], 2.82 µM [rising, full curve, poor fit]. With `O=C(CSc1ncc(C(F)(F)F)cc1Cl)N1CCN(S(=O)(=O)c2ccccc2)CC1`, the AC50 under setting [1] was 0.0794 µM [rising, full curve, poor fit]. Regarding `COc1c(C(=O)Nc2ccc(Cc3ccncc3)cc2)ccc2ccccc12`, the AC50 by setting is: under setting [1], 11.2 µM [rising, partial curve]; under setting [2], 11.2 µM [rising, partial curve]. In the case of `O=C(NCc1cccnc1)C(=O)NCC(c1cccnc1)N1CCN(c2ccccc2)CC1` (stereo unspecified), the AC50 under setting [2] was 35.5 µM [rising, single point].

`CCN(CC)S(=O)(=O)c1cc(C(=O)N(C)CC(=O)Nc2ccc(Cl)cc2)ccc1Cl`: the AC50 under setting [1] is 12.6 µM [rising, partial curve] and the AC50 under setting [2] is 10 µM [rising, partial curve].

As to `CCCn1c(=O)c2ccccc2n2c(SCC(=O)c3ccc(CC)cc3)nnc12`, the AC50 under setting [2] is 2.82 µM [falling, partial curve]. On to `c1ccc(Oc2cccc(OCCCCSc3ncccn3)c2)cc1`, for which the AC50 is 3.55 µM [falling, full curve, poor fit] under setting [1] and 5.01 µM [falling, single point] under setting [2]. `COc1ccc2cc(C(=O)NCc3ccc4c(c3)CCN4C(=O)c3ccc(C)cc3)[nH]c2c1`: the AC50 under setting [1] is 0.112 µM [falling, partial curve, poor fit]. In the case of `Cc1ccc(NC(=O)C(OC(=O)c2ccccc2Cl)c2ccccc2)cc1Cl` (stereo unspecified), under setting [2], the AC50 is 15.8 µM [rising, single point].

On to `Nc1nc(SCC(=O)Nc2ccc3c(c2)CCC3)n[nH]1`, for which the AC50 reads like this: under setting [1], 10 µM [rising, partial curve]; under setting [2], 12.6 µM [rising, single point]. `O=C(CCNc1ccc(Cc2ccncc2)cc1)c1cccc([N+](=O)[O-])c1`: the AC50 under setting [2] is 35.5 µM [falling, single point]. Consider `CCNc1nc(NCC)nc(N/N=C/c2ccc(Br)cc2)n1`, for which the AC50 runs as follows: under setting [1], 31.6 µM [falling, partial curve]; under setting [2], 3.55 µM [falling, partial curve, poor fit].

`CC1CCCCN1S(=O)(=O)c1ccc(S(=O)(=O)N(CC(=O)Nc2ccccc2)Cc2cccs2)cc1` (stereo unspecified): the AC50 was 17.8 µM [rising, partial curve, poor fit] under setting [1] and 15.8 µM [rising, partial curve] under setting [2]. For `Cc1cc(=O)[nH]c(N/N=C/c2ccccc2C(F)(F)F)n1`, the AC50 under setting [1] was 7.08 µM [rising, partial curve, poor fit]. For `Cc1ccc(NC2=Nc3ccccc3CS2)cc1`, under setting [2], the AC50 is 5.01 µM [falling, single point]. For `C/C=C/Cn1c(SCCCc2ccccc2)nc2c1c(=O)[nH]c(=O)n2C`, the AC50 by setting is: under setting [1], 31.6 µM [rising, single point]; under setting [2], 35.5 µM [rising, single point].

The values above are taken from PubChem BioAssay AID1487 (National Center for Advancing Translational Sciences (NCATS), 2009).
